According to article PMC3441751, “Structure and Assembly of a Trans-Periplasmic Channel for Type IV Pili in Neisseria meningitidis” (PLoS Pathogens, 2012):
These are yes or no findings as the source states them, for the method shown. Some binding calls cover weakened binding; strength is not graded here.

Chains of the proteins cited; added tags and fusions are not shown. Residues count along the entry.
UniProt Q7DD77, residues 77-164: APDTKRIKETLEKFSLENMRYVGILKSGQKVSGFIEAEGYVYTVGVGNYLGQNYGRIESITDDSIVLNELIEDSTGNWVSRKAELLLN
N0N1PilQ^343–545 (N0/N1 double domain of N. meningitidis PilQ) (Q70M91, residues 343-545): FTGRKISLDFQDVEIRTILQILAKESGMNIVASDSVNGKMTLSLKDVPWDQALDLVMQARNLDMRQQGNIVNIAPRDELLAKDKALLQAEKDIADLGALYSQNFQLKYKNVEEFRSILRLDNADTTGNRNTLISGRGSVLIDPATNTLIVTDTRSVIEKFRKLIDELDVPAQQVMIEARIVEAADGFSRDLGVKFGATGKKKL
N0PilQ^343–442 (N0 domain of N. meningitidis PilQ) (Q70M91, residues 343-442): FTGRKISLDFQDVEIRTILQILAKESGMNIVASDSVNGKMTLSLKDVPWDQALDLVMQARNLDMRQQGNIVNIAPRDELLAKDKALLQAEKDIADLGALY

How the values were obtained:
[1] = molecular target: PilP^77–164 (C-terminal domain of the PilP lipoprotein, N. meningitidis) (N. meningitidis) (UniProt Q7DD77); assay: NMR titration; unlabelled PilQ fragment titrated into 50 µM 15N-labelled PilP^77–164; [PilP]:[PilQ] 1:0.1 to 1:1; 2D 1H-15N HSQC; 50 mM NaCl, 50 mM sodium phosphate pH 6.8; 298 K; peak attenuation; both purified
[2] = molecular target: N0N1PilQ^343–545 (N0/N1 double domain of N. meningitidis PilQ) (N. meningitidis) (UniProt Q70M91); assay: NMR titration; natural-abundance PilP^77–164 titrated into 15N 13C PilQ (N0PilQ^343–442 or N0N1PilQ^343–545); [PilQ]:[PilP] 1:0.1 to 1:1; peak attenuation; both purified
[3] = molecular target: N0PilQ^343–442 (N0 domain of N. meningitidis PilQ) (N. meningitidis) (UniProt Q70M91); assay: as above

Substance	binding [1]	binding [2]	binding [3]
N0N1PilQ^343–545 (N0/N1 double domain of N. meningitidis PilQ) (from UniProt Q70M91 343-545) (domain or fragment)	binds	–	–
PilP^77–164 (C-terminal domain of the PilP lipoprotein, N. meningitidis) (from UniProt Q7DD77 77-164) (domain or fragment)	–	binds	binds
